Results are given in words; binding and its absence hold for the method and conditions named. In cells and extracts the contact can be indirect. Binding calls can cover weak binding; strength is not graded here. Sequences can lack the tags named with a protein.
Target: T1, Flag-tagged mouse S100A9 (mouse) (UniProt P31725)
T1 sequence: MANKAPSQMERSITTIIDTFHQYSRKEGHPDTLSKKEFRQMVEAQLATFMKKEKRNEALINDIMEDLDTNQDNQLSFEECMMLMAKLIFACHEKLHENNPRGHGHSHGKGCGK
Assay: co-IP; HEK293T cells transiently expressing Flag-S100A9 together with METTL9 (WT)-HA or METTL9 (ΔSP)-HA; lysis buffer 20 mM Hepes-KOH pH 7.9, 150 mM NaCl, 0.1% Triton X-100, 0.1 mM EDTA; precipitated with ANTI-FLAG M2 Affinity Gel, blot with anti-Flag and anti-HA; normal mouse IgG as negative control

By UniProt entry, the sequences of proteins in these tests, tags left out. Where a name states a change or a piece, a line headed by the entry shows the natural chain unless it says otherwise.
UniProt Q9EPL4: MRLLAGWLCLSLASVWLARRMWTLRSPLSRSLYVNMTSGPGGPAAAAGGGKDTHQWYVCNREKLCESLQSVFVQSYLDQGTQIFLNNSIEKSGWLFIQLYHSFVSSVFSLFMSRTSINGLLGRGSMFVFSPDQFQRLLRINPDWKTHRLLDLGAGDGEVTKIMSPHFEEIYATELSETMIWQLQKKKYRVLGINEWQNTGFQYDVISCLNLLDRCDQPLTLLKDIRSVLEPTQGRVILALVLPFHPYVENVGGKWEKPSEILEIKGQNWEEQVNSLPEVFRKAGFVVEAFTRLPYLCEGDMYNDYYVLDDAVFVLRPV

C-terminal hemagglutinin-tagged mouse METTL9 (from UniProt Q9EPL4) (enzyme)
binding: binds
